Measured values from the supplement of paper PMC10849652.
This is one part of the list.

Amino acid sequences for entries named in this document (tags omitted). A change or cut given only in a name is not applied to a line headed by its entry.
UniProt Q15942: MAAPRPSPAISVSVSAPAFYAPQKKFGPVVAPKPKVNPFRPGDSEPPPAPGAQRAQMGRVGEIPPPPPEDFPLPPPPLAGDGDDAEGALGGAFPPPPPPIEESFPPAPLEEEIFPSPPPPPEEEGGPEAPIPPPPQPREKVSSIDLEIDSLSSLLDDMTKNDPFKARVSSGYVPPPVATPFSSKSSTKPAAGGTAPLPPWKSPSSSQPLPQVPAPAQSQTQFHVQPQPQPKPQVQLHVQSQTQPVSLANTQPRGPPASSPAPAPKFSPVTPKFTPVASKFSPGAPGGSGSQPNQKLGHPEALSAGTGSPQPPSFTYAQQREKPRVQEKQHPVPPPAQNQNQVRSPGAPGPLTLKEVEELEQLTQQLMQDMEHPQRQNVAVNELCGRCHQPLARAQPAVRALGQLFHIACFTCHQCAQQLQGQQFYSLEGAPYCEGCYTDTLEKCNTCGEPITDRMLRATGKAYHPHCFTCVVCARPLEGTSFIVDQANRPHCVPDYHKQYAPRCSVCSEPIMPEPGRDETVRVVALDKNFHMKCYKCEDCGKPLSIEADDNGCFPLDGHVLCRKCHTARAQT
UniProt O43149: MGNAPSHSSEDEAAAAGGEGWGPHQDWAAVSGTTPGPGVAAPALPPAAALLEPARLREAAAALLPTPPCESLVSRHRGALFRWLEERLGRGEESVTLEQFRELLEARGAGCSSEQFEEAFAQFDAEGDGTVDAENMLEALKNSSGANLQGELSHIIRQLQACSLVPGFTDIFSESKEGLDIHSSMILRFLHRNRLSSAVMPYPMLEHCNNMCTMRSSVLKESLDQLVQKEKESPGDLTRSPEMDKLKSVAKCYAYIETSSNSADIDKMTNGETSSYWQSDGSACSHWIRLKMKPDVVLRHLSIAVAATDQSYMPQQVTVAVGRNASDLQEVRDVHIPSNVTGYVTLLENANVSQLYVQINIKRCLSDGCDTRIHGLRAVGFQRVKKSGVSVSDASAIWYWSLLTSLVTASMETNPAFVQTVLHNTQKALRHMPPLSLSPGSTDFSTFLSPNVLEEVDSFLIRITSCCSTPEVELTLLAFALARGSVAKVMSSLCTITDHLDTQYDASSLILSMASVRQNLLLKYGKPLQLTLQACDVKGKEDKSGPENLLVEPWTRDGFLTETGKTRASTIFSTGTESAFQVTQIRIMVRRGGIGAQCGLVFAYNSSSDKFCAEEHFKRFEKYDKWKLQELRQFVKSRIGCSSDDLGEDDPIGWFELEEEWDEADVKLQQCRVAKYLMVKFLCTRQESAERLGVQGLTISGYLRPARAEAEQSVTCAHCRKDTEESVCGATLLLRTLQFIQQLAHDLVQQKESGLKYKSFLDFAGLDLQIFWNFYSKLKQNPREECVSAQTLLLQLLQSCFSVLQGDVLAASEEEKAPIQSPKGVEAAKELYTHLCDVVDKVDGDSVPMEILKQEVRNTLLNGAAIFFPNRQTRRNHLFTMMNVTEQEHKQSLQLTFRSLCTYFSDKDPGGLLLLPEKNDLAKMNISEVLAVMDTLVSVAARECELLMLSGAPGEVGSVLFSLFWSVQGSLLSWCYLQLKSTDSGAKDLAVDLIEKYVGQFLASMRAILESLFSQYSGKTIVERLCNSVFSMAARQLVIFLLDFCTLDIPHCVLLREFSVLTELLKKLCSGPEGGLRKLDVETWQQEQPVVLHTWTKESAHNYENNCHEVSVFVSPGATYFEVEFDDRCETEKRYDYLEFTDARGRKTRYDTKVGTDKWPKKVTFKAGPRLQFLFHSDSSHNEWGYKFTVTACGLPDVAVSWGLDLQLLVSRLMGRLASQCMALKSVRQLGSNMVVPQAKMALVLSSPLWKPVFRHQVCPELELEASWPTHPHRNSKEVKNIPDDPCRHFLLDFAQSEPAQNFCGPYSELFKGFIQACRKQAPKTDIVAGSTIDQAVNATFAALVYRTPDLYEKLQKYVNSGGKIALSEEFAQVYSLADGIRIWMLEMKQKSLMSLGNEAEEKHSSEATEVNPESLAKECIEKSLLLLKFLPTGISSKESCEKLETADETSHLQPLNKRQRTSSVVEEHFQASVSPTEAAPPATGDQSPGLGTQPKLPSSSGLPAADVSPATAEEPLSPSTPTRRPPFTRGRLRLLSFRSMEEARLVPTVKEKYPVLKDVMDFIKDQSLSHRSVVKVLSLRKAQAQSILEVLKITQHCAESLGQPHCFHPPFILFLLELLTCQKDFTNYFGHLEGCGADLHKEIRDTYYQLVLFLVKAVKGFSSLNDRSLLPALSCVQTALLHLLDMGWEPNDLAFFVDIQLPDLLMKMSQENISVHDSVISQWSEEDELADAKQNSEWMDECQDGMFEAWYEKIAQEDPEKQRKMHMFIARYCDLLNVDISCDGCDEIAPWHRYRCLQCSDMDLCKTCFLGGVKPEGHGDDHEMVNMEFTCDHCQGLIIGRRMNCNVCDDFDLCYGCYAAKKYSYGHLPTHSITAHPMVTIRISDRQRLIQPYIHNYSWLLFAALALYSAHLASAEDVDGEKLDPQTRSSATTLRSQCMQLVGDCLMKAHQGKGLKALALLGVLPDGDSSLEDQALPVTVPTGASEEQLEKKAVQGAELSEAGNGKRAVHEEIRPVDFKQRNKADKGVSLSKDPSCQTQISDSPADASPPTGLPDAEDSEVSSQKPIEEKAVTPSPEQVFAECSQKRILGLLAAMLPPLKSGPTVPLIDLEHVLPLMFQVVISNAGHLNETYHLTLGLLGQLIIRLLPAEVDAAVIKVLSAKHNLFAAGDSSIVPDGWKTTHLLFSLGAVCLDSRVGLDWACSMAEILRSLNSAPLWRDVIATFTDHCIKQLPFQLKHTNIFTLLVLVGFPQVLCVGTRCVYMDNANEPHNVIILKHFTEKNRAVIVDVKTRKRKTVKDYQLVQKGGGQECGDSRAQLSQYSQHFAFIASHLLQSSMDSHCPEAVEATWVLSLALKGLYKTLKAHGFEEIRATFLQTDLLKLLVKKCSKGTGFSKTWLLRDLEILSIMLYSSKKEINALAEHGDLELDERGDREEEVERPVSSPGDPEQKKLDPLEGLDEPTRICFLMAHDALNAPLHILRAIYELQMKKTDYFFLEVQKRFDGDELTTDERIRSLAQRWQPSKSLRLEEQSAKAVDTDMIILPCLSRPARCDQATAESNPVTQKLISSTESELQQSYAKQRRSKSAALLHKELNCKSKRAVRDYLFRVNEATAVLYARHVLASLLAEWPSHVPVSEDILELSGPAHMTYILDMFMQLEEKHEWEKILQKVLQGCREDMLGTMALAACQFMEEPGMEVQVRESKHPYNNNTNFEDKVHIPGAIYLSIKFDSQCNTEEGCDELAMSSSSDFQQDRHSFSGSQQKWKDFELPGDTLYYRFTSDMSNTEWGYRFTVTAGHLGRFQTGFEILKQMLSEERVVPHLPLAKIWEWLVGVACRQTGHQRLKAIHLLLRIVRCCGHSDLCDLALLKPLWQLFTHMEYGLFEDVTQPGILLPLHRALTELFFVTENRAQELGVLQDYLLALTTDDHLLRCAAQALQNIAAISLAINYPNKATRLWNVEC

biological target: ZYX (UniProt Q15942); assay: log2 fold change, soluble protein after heating vs DMSO (PISA); higher = thermal stabilisation; K562 cells, 10 uM, 30 min; active = over 0.2 and 3.5 SD of the protein, either way, in both replicates (recomputed)
How it was run: (§1)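 Soluble protein was quantified by TMTpro 16plex LC-MS/MS after channel sums were equalised. It was obtained as the supernatant after 21,000xg for 90 min from pooled aliquots of K562 cells (2×10^6 cells/mL, 10 μM compound, 30 min) heated for 3 min across 48°C-58°C and extracted in PBS with 0.5% NP-40 at 4°C. Thermal stability values are relative to control samples and come from duplicates. They are given as log2 fold changes.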

log2 fold change, inactive:
CN1CCC(CNc2ccc3ncc(-c4cccc(OC(F)(F)F)c4)n3n2)CC1 0.015
Cn1c2cc(S(C)=O)sc2c2cnn(Cc3cccc(N)c3)c(=O)c21 (stereo not given) -0.03
CN1CCN(CCOc2cc(OC3CCOCC3)c3c(Nc4c(Cl)ccc5c4OCO5)ncnc3c2)CC1 [saracatinib] 0.027
Cc1ccc(NC(=O)c2ccc(CN3CC[C@H](N(C)C)C3)c(C(F)(F)F)c2)cc1Nc1nccc(-c2cncnc2)n1 [bafetinib] -0.058
CNCc1ccc(-c2[nH]c3cc(F)cc4c3c2CCNC4=O)cc1 [rucaparib] 0.054
COc1cc(Nc2ncc3c(n2)-c2ccc(Cl)cc2C(c2c(F)cccc2OC)=NC3)ccc1C(=O)O [alisertib] -0.012
Cc1ccc(NC(=O)c2cccc(N(C)C)c2)cc1NC(=O)c1ccc(O)cc1 -0.034
Cn1cc(-c2ccc3c(c2)CCN3C(=O)Cc2cccc(C(F)(F)F)c2)c2c(N)ncnc21 0.021
COC(=O)N[C@@H](C)CNc1nccc(-c2cn(C(C)C)nc2-c2cc(Cl)cc(NS(C)(=O)=O)c2F)n1 [encorafenib] -0.049
CC[C@@H]1C(=O)N(C)c2cnc(Nc3ccc(C(=O)NC4CCN(C)CC4)cc3OC)nc2N1C1CCCC1 -0.015
CCCc1cc(C)[nH]c(=O)c1CNC(=O)c1cc(-c2ccnc(N3CCN(C)CC3)c2)cc2c1cnn2C(C)C -0.035
O=C(Nc1nc2ccccc2n1CCN1CCOCC1)c1cccc([N+](=O)[O-])c1 [IRAK-1-4 Inhibitor I] 0.019
C=CC(=O)N1CCC[C@@H](n2nc(-c3ccc(Oc4ccccc4)cc3)c3c(N)ncnc32)C1 [ibrutinib] 0.013
COc1cc2ncnc(Nc3ccc(F)c(Cl)c3)c2cc1OCCCN1CCOCC1 [gefitinib] -0.005
c1cc(OCCN2CCCCC2)cc(-c2n[nH]c3ccc(-c4nnc[nH]4)cc23)c1 0.017
Fc1ccc(Cl)cc1-c1nc(Nc2ccncc2)c2nccnc2n1 0.03
CCn1cc(-c2ccnc3[nH]c(-c4cccc(CN(C)C)c4)cc23)c(-c2ccc(NC(=O)N(C)C)cc2)n1 -0.014
NCC(=O)Nc1ccc(-n2nc(C(F)(F)F)cc2-c2ccc3c(ccc4ccccc43)c2)cc1 0.006
CC(C)(O)CC(=O)NCCn1ccc2ncnc(Nc3ccc(Oc4cccc(C(F)(F)F)c4)c(Cl)c3)c21 0.017
CON(C)C(=O)N1N=C(c2cc(F)ccc2F)S[C@@]1(CCCN)c1ccccc1 [filanesib] -0.033
Cc1cc(Nc2cc(CN3CCOCC3)c3nc(C)c(Cc4ccc(Cl)cc4F)n3n2)n[nH]1 [gandotinib] 0.048
O=C(O)c1ccc2c(c1)nc(Nc1cccc(Cl)c1)c1ccncc12 [silmitasertib] -0.023
CCN(CCCOc1ccc2c(Nc3cc(CC(=O)Nc4cccc(F)c4)[nH]n3)ncnc2c1)CCOP(=O)(O)O [barasertib] -0.006
Nc1ccccc1NC(=O)c1ccc(CNC(=O)OCc2cccnc2)cc1 [entinostat] 0.003
Oc1cc(-c2nc(-c3ccccc3)[nH]c2-c2ccncc2)ccc1Cl 0.016
CC[C@H](C)n1cc(C)c2c(C(=O)NCc3c(C)cc(C)[nH]c3=O)cc(-c3ccc(N4CCNCC4)nc3)cc21 -0.037
CNC(=O)c1ccc(Nc2ncc(C(F)(F)F)c(NCc3nccnc3N(C)S(C)(=O)=O)n2)cc1 [defactinib] -0.006
Cc1cc(SCc2sc(-c3ccc(C(F)(F)F)cc3)nc2C)ccc1OCC(=O)O -0.02
C[C@@H]1COCCN1c1cc(C2(S(C)(=O)=O)CC2)nc(-c2cccc3[nH]ccc23)n1 -0.021
C[C@@H](Oc1cc(-c2cnn(C3CCNCC3)c2)cnc1N)c1c(Cl)ccc(F)c1Cl [crizotinib] 0

biological target: ZZEF1 (UniProt O43149); assay: as above
How it was run: as §1

log2 fold change, inactive:
CN1CCC(CNc2ccc3ncc(-c4cccc(OC(F)(F)F)c4)n3n2)CC1 -0.02
Cn1c2cc(S(C)=O)sc2c2cnn(Cc3cccc(N)c3)c(=O)c21 (stereo not given) -0.017
CN1CCN(CCOc2cc(OC3CCOCC3)c3c(Nc4c(Cl)ccc5c4OCO5)ncnc3c2)CC1 [saracatinib] -0.067
Cc1ccc(NC(=O)c2ccc(CN3CC[C@H](N(C)C)C3)c(C(F)(F)F)c2)cc1Nc1nccc(-c2cncnc2)n1 [bafetinib] 0.037
CNCc1ccc(-c2[nH]c3cc(F)cc4c3c2CCNC4=O)cc1 [rucaparib] -0.013
COc1cc(Nc2ncc3c(n2)-c2ccc(Cl)cc2C(c2c(F)cccc2OC)=NC3)ccc1C(=O)O [alisertib] 0.133
Cc1ccc(NC(=O)c2cccc(N(C)C)c2)cc1NC(=O)c1ccc(O)cc1 -0.04
Cn1cc(-c2ccc3c(c2)CCN3C(=O)Cc2cccc(C(F)(F)F)c2)c2c(N)ncnc21 -0.058
COC(=O)N[C@@H](C)CNc1nccc(-c2cn(C(C)C)nc2-c2cc(Cl)cc(NS(C)(=O)=O)c2F)n1 [encorafenib] 0.097
CC[C@@H]1C(=O)N(C)c2cnc(Nc3ccc(C(=O)NC4CCN(C)CC4)cc3OC)nc2N1C1CCCC1 -0.042
CCCc1cc(C)[nH]c(=O)c1CNC(=O)c1cc(-c2ccnc(N3CCN(C)CC3)c2)cc2c1cnn2C(C)C 0.006
O=C(Nc1nc2ccccc2n1CCN1CCOCC1)c1cccc([N+](=O)[O-])c1 [IRAK-1-4 Inhibitor I] 0.069
C=CC(=O)N1CCC[C@@H](n2nc(-c3ccc(Oc4ccccc4)cc3)c3c(N)ncnc32)C1 [ibrutinib] -0.054
COc1cc2ncnc(Nc3ccc(F)c(Cl)c3)c2cc1OCCCN1CCOCC1 [gefitinib] 0.026
c1cc(OCCN2CCCCC2)cc(-c2n[nH]c3ccc(-c4nnc[nH]4)cc23)c1 -0.013
Fc1ccc(Cl)cc1-c1nc(Nc2ccncc2)c2nccnc2n1 0.037
CCn1cc(-c2ccnc3[nH]c(-c4cccc(CN(C)C)c4)cc23)c(-c2ccc(NC(=O)N(C)C)cc2)n1 -0.067
NCC(=O)Nc1ccc(-n2nc(C(F)(F)F)cc2-c2ccc3c(ccc4ccccc43)c2)cc1 -0.026
CC(C)(O)CC(=O)NCCn1ccc2ncnc(Nc3ccc(Oc4cccc(C(F)(F)F)c4)c(Cl)c3)c21 -0.093
CON(C)C(=O)N1N=C(c2cc(F)ccc2F)S[C@@]1(CCCN)c1ccccc1 [filanesib] -0.008
Cc1cc(Nc2cc(CN3CCOCC3)c3nc(C)c(Cc4ccc(Cl)cc4F)n3n2)n[nH]1 [gandotinib] -0.098
O=C(O)c1ccc2c(c1)nc(Nc1cccc(Cl)c1)c1ccncc12 [silmitasertib] 0.003
CCN(CCCOc1ccc2c(Nc3cc(CC(=O)Nc4cccc(F)c4)[nH]n3)ncnc2c1)CCOP(=O)(O)O [barasertib] 0.045
Nc1ccccc1NC(=O)c1ccc(CNC(=O)OCc2cccnc2)cc1 [entinostat] -0.006
Oc1cc(-c2nc(-c3ccccc3)[nH]c2-c2ccncc2)ccc1Cl -0.012
CC[C@H](C)n1cc(C)c2c(C(=O)NCc3c(C)cc(C)[nH]c3=O)cc(-c3ccc(N4CCNCC4)nc3)cc21 -0.014
CNC(=O)c1ccc(Nc2ncc(C(F)(F)F)c(NCc3nccnc3N(C)S(C)(=O)=O)n2)cc1 [defactinib] -0.039
Cc1cc(SCc2sc(-c3ccc(C(F)(F)F)cc3)nc2C)ccc1OCC(=O)O 0.044
C[C@@H]1COCCN1c1cc(C2(S(C)(=O)=O)CC2)nc(-c2cccc3[nH]ccc23)n1 0.022
C[C@@H](Oc1cc(-c2cnn(C3CCNCC3)c2)cnc1N)c1c(Cl)ccc(F)c1Cl [crizotinib] -0.016
